These results are taken from article PMC4086955.

Protein sequences, listed by entry. Tags and fused reporters are not part of them. Lines headed by an entry give the natural chain unless they say otherwise; changes in a name come on top. Chains listed by the source or under a name are the forms on record and can include a tag or linker. Residues count along the entry.
UniProt P21802: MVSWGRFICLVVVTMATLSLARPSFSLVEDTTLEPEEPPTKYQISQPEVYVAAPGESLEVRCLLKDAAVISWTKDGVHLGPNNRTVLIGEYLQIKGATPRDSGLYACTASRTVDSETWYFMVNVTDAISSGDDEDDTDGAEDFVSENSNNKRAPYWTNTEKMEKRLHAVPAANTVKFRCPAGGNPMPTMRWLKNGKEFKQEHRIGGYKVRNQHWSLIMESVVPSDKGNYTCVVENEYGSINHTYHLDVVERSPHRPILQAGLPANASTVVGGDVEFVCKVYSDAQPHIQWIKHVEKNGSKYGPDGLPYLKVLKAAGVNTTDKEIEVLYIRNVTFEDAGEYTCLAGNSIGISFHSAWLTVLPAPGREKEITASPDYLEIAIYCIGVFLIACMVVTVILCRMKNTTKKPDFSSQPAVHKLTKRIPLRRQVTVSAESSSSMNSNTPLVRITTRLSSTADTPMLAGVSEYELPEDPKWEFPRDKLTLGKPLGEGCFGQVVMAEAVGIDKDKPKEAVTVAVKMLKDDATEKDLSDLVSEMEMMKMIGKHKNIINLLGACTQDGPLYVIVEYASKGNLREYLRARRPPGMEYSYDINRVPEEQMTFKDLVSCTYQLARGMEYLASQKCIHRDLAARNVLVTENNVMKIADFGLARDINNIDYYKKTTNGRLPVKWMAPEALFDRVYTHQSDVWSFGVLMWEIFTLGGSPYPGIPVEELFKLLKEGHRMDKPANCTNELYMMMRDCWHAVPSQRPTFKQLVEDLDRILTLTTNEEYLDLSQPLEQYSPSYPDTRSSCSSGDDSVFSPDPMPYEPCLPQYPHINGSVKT
membrane-bound FGFR2IIIc-FLAG: residues 22-821 of P21802
soluble form of wild-type FGFR2 (sFGFR2IIIc-FLAG): residues 22-377 of P21802
soluble form of FGFR2IIIc with the S252W mutation (sFGFR2IIIc^S252W-FLAG) (P21802-1, form named): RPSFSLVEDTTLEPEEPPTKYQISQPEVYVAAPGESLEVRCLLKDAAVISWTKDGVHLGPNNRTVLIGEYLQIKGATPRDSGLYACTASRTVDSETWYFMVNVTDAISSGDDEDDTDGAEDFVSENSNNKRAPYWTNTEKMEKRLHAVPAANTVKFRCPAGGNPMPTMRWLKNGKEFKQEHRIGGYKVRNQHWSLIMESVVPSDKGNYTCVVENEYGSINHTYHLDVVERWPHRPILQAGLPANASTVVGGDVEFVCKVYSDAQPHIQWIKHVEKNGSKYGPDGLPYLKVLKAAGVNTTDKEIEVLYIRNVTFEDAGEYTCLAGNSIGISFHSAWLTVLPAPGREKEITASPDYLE
FGFR2IIIc^S252W-FLAG (P21802-1, form named): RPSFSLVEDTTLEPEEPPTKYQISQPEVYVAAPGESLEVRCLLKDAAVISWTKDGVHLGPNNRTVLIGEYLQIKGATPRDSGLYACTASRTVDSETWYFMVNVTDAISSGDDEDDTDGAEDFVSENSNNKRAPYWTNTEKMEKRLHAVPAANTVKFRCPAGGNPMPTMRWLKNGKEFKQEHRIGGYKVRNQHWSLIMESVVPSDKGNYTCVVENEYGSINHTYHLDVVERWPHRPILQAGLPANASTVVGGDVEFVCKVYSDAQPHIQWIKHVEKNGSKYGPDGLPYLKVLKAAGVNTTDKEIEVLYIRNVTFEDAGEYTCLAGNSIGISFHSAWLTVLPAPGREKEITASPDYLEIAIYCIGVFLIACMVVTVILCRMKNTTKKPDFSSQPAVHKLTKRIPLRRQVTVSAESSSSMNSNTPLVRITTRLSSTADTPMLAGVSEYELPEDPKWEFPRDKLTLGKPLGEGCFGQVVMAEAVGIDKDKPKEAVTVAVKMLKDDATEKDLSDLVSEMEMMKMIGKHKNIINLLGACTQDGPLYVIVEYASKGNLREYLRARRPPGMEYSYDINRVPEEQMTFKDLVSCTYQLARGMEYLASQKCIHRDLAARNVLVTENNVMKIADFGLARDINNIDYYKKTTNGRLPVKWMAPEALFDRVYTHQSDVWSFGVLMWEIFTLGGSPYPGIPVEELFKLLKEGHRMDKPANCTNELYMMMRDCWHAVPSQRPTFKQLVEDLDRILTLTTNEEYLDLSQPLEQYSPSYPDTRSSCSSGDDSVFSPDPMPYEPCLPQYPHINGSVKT
full-length FGFR2IIIb with the S252W mutation (P21802, form named): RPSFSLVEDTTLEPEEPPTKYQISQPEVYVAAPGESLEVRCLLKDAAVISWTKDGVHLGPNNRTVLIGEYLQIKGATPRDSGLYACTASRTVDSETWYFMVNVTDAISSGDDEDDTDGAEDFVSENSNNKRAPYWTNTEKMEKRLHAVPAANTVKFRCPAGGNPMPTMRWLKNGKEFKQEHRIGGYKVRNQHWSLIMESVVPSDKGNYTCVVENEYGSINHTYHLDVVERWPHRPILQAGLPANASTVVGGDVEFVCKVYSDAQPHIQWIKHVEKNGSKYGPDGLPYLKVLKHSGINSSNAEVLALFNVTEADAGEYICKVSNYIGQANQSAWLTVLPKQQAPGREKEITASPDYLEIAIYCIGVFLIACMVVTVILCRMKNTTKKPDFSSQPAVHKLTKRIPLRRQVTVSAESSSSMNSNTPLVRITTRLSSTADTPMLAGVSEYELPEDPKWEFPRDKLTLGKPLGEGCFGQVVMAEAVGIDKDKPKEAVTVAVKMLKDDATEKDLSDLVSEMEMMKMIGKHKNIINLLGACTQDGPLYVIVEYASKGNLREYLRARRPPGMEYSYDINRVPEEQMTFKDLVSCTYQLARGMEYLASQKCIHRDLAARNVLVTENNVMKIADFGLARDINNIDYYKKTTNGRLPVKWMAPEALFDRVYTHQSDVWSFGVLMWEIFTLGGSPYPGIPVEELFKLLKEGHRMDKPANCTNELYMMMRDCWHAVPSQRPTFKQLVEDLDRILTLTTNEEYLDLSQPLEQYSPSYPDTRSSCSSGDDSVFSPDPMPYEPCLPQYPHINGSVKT
UniProt P15655, residues 10-154: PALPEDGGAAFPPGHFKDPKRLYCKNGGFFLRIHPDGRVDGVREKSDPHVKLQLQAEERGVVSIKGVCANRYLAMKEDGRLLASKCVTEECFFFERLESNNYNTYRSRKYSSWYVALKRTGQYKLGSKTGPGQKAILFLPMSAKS

Assay [1] deals with soluble form of FGFR2IIIc with the S252W mutation (sFGFR2IIIc^S252W-FLAG) (UniProt P21802). Nature of the assay: pull-down; Pull-down PolyHis Protein-Protein Interaction Kit; purified sFGFR2IIIc and sFGFR2IIIc^S252W named as bait proteins, Fgf2-His as prey protein; both purified.
Assay [2] addresses soluble form of wild-type FGFR2 (sFGFR2IIIc-FLAG) (UniProt P21802). The assay is described as above.
The next assay concerns the target FGFR2IIIc^S252W-FLAG (UniProt P21802). Kind of assay: co-IP; Cos-7 cells co-transfected, lysed in RIPA buffer; immunoprecipitation with anti-FGFR2 polyclonal antibodies that recognise the cytoplasmic region, western blot with anti-FLAG. (In western blotting, separated proteins are transferred to a membrane and probed.)
Assay [3] has as its target full-length FGFR2IIIb with the S252W mutation (UniProt P21802). The description is as above.
For assay [4], the target named is membrane-bound FGFR2IIIc-FLAG (UniProt P21802). The description is as above.

These are yes or no findings as the source states them, for the method shown. For some assays here: In cells and extracts the contact can be indirect. Some entries that bind do so weakly or less than the wild type.

In the case of “His-tagged Fgf2 protein (Fgf2-His) (from UniProt P15655 10-154) (ligand)”, the binding result in assay [1] and in assay [2] was “binds” in each case.
In the case of “soluble form of FGFR2IIIc with the S252W mutation (sFGFR2IIIc^S252W-FLAG) (from UniProt P21802-1 22-377) (domain or fragment)”, the binding result (in the assay with FGFR2IIIc^S252W-FLAG; in assay [3]; in assay [4]) was “binds” in each case.
